From patent US6586606B2, “Process for the preparation of 3-aryl-benzofuran-2-ones” (Ciba Specialty Chemicals Corporation, priority 2000, dated 2003)

What was measured:
[1] = Stabilization of multiple-extruded polypropylene (melt index); settings: 0.05% of compound with 0.05% Irganox 1010, 0.05% calcium stearate, 0.03% DHT 4A; extruded at 260, 270, 280° C.; measured at 230° C./2.16 kg; without compound 17.8
[2] = Stabilization of multiple-extruded polypropylene at high temperature (melt index); settings: with 0.05% Irganox 1010, 0.10% calcium stearate, Irgafos 168 0.100%, Sandostab P-EPQ 0.050%, Compound (301) 0.015%, mixtures 0.045% + 0.005%, measured at 230° C./2.16 kg
[3] = Stabilization of polyethylene during processing (Brabender plastograph, torque); settings: 0.05 part compound with 0.05 part Irganox 1010 per 100 parts polyethylene; kneaded at 220° C. and 50 rpm; without compound 9.7
[4] = Stabilization of polycarbonate (oven ageing at 135° C., yellowness index and transmission); settings: 2 mm polycarbonate plates, Irgafos 168 0.05%, Compound (301) 0.01%, Compound (314) 0.01%; for Yellowness index after 2000 hours at 135° C. / Transmission in % after 2000 hours at 135° C.: circulating air oven; for Yellowness index after 2000 hours at 135° C.: unstabilized 25.5; for Yellowness index prior to oven-ageing: unstabilized 4.1; for Transmission in % after 2000 hours at 135° C. / Transmission in % prior to oven-aging: at 450 nm; for Transmission in % after 2000 hours at 135° C.: unstabilized 76.2; for Transmission in % prior to oven-aging: unstabilized 84.8

## Cc1ccc(-c2c(N)oc3c(C(C)(C)C)cc(C(C)(C)C)cc23)cc1 [Compound (311)]
[1]
  Melt index after 3 extrusions: 4.9

## CC(C)(C)c1cc(C(C)(C)C)c2oc(N)c(-c3ccccn3)c2c1 [Compound (319)]
[1]
  Melt index after 3 extrusions: 4.9

## CC(C)(C)c1ccc(OP(Oc2ccc(C(C)(C)C)cc2C(C)(C)C)c2ccc(-c3ccc(P(Oc4ccc(C(C)(C)C)cc4C(C)(C)C)Oc4ccc(C(C)(C)C)cc4C(C)(C)C)cc3)cc2)c(C(C)(C)C)c1 [Sandostab ® P-EPQ, tetrakis(2,4-di-tert-butylphenyl)-4,4′-biphenylene diphosphonite]
[2]
  Melt index after 5 extrusions 280° C.: 6.4
  Melt index after 5 extrusions 320° C.: 24.1
  Melt index after 5 extrusions 340° C.: 61.9

## CC(C)(C)c1cc(C(C)(C)C)c2oc(N)c(-c3cccc(C(F)(F)F)c3)c2c1 [Compound (313)]
[1]
  Melt index after 3 extrusions: 4.9

## Cc1cccc(-c2c(N)oc3c(C(C)(C)C)cc(C(C)(C)C)cc23)c1 [Compound (310)]
[3]
  Time until increase in torque: 27.4 min

## Cc1cc(C(C)(C)C(C)C)c2oc(N)c(-c3ccccc3)c2c1 [Compound (307)]
[3]
  Time until increase in torque: 27.3 min

## Cc1ccc(-c2c(N)oc3c(C(C)(C)C)cc(C(C)(C)C)cc23)cc1C [Compound (302), 2-amino-5,7-di-tert-butyl-3-(3,4-dimethylphenyl)-benzofurane]
[1]
  Melt index after 3 extrusions: 4.9
[3]
  Time until increase in torque: 27.4 min

## CC(C)(C)c1ccc(OP(Oc2ccc(C(C)(C)C)cc2C(C)(C)C)Oc2ccc(C(C)(C)C)cc2C(C)(C)C)c(C(C)(C)C)c1 [Irgafos ® 168, tris(2,4-di-tert-butylphenyl)phosphite, reference compound]
[2]
  Melt index after 5 extrusions 280° C.: 9.8
  Melt index after 5 extrusions 320° C.: 44.0
  Melt index after 5 extrusions 340° C.: 80.4
[4]
  Yellowness index after 2000 hours at 135° C.: 23.9
  Yellowness index prior to oven-ageing: 3.5
  Transmission in % after 2000 hours at 135° C.: 77.9%
  Transmission in % prior to oven-aging: 84.8%

## CC(C)(C)c1cc(C(C)(C)C)c2oc(N)c(-c3ccccc3)c2c1 [Compound (301), 2-amino-3-phenyl-5,7-di-tert-butyl-benzofurane]
[1]
  Melt index after 3 extrusions: 4.9
[3]
  Time until increase in torque: 27.4 min
[2]
  Melt index after 5 extrusions 280° C.: 8.1
  Melt index after 5 extrusions 320° C.: 19.8
  Melt index after 5 extrusions 340° C.: 22.7
[4]
  Yellowness index after 2000 hours at 135° C.: 16.6
  Yellowness index prior to oven-ageing: 3.5
  Transmission in % after 2000 hours at 135° C.: 81.2%
  Transmission in % prior to oven-aging: 85.9%

## CC(C)(C)c1cc(C(C)(C)C)c2oc(N)c(-c3ccc(C(F)(F)F)cc3)c2c1 [Compound (314)]
[4]
  Yellowness index after 2000 hours at 135° C.: 15.5
  Yellowness index prior to oven-ageing: 3.5
  Transmission in % after 2000 hours at 135° C.: 81.5%
  Transmission in % prior to oven-aging: 85.9%

## CC(C)(C)c1cc(C(C)(C)C)c2oc(N)c(-c3cccs3)c2c1 [Compound (320)]
[3]
  Time until increase in torque: 27.3 min
